Assay results reported in PubChem BioAssay AID248 (DTP/NCI, 2004).
The list is a part of this screen's results and no random one: it gathers tests that were run many times, whatever their T/C, doses with no T/C, and many T/C values between a quarter and a half above the control. Further doses and runs are listed elsewhere. T/C gives the treated animals as a percentage of the vehicle group. Some doses have a count of surviving animals in place of a T/C: the source files T/C as zero there, which appears to mark a toxic dose or a test without result, not a measured value. Some survivor counts are full or nearly so, which does not show that the dose was tolerated: survival well below the control is almost never listed, so the zero probably covers shortened survival too. Survivors were counted at the toxicity check, usually on the fifth day, unless a day is given; later deaths do not show. Schedule codes are those of the source, taken here to give the interval after Q, in days (D) or hours (H), and the number of doses after X. Some entries hold several experiments; the results are listed from low to high. Some schedule codes hold Z or #, which are not explained here. Where survival is the endpoint, this PubChem deposit counts one and a half times the control or more as active, and values a quarter to a half above the control carry no call in these data; other NCI protocols may use other cut-offs.

Test system: L1210 leukemia ip in BDF1 mice, survival T/C
Test: NCI In Vivo Anticancer Drug Screen. Data for tumor model L1210 Leukemia (intraperitoneal) in B6D2F1 (BDF1) mice
Conditions: T/C endpoint: mean survival time, higher T/C = longer survival
[1] = dose: 400.0 mg/kg/injection, schedule: Q01DX001 (ip), vehicle: Klucel (hydroxypropylcellulose) (HPC)
[2] = dose: 200.0 mg/kg/injection, schedule: Q04DX003 (ip), vehicle: saline with Tween-80
[3] = dose: 400.0 mg/kg/injection, schedule: Q04DX003 (ip), vehicle: Klucel (hydroxypropylcellulose) (HPC)
[4] = dose: 100.0 mg/kg/injection, schedule: Q01DX009 (ip), vehicle: saline
[5] = dose: 200.0 mg/kg/injection, schedule: Q01DX009 (ip), vehicle: water
[6] = dose: 400.0 mg/kg/injection, schedule: Q01DX001 (ip), vehicle: saline
[7] = dose: 400.0 mg/kg/injection, schedule: Q04DX003 (ip), vehicle: water
[8] = dose: 400.0 mg/kg/injection, schedule: Q01DX001 (ip), vehicle: carboxymethylcellulose (CMC)
[9] = dose: 400.0 mg/kg/injection, schedule: Q04DX002 (ip), vehicle: Klucel (hydroxypropylcellulose) (HPC)
[10] = dose: 400.0 mg/kg/injection, schedule: Q01DX009 (ip), vehicle: saline
[11] = dose: 0.8 mg/kg/injection, schedule: Q01DX Z (oral), vehicle: methylcellulose (MC)
[12] = dose: 3.6 mg/kg/injection, schedule: Q01DX Z (oral), vehicle: methylcellulose (MC)

In the case of `CC(C#N)CN1CC1` (stereo unspecified), the survivor count (dose: 40.0 mg/kg/injection, schedule: Q01DX001 (ip), vehicle: Klucel (hydroxypropylcellulose) (HPC)) is reported as 3 of 6, the survivor count (dose: 80.0 mg/kg/injection, schedule: Q01DX001 (ip), vehicle: Klucel (hydroxypropylcellulose) (HPC)) is reported as 1 of 6 and the survivor count (dose: 100.0 mg/kg/injection, schedule: Q01DX001 (ip), vehicle: Klucel (hydroxypropylcellulose) (HPC)) is reported as 0 of 6. The survivor count (dose: 200.0 mg/kg/injection, schedule: Q01DX001 (ip), vehicle: Klucel (hydroxypropylcellulose) (HPC)) was 0 of 6 and the survivor count [1] was 0 of 6.

With `NC(N)=N/N=C/c1cc([N+](=O)[O-])ccc1OCC(=O)O` the survivor count (dose: 720.0 mg/kg/injection, schedule: Q01DX Z (ip), vehicle: methylcellulose (MC)) was 0 of 6 and the survivor count (dose: 960.0 mg/kg/injection, schedule: Q01DX Z (ip), vehicle: methylcellulose (MC)) was 0 of 6.

With `COc1ccc2ccc[n+](C)c2c1` the survivor count (dose: 100.0 mg/kg/injection, schedule: Q04DX003 (ip), vehicle: saline with Tween-80) was 1 of 6, the survivor count [2] was 0 of 6 and the survivor count (dose: 400.0 mg/kg/injection, schedule: Q04DX003 (ip), vehicle: saline with Tween-80) was 0 of 6.

`CCN1C(C)C1C(C)C` (stereo unspecified) was tested, and the survivor count (dose: 200.0 mg/kg/injection, schedule: Q04DX003 (ip), vehicle: Klucel (hydroxypropylcellulose) (HPC)) was 1 of 6 and the survivor count [3] was 0 of 6.

`CC1CC([O-])=N/[N+]1=C\c1ccccc1` (stereo unspecified) was tested, and the survivor count (dose: 400.0 mg/kg/injection, schedule: Q01DX009 (ip), vehicle: saline with Tween-80) was 0 of 6.

`CCCCN(CCCC)CC(O)c1ccccc1` (stereo unspecified) was tested, and the survivor count [4] was 1 of 3.

`CCCCCCCCCCCCCCCCCCOC(=O)C(C(C)=O)C(c1cccc([N+](=O)[O-])c1)C(C(C)=O)C(=O)O` (stereo unspecified) was tested, and the survivor count [2] was 6 of 6.

For `CCCCNC(C)(C)CCl`, the survivor count [4] was 3 of 6, the survivor count (dose: 100.0 mg/kg/injection, schedule: Q01DX009 (ip), vehicle: water) was 0 of 6 and the survivor count (dose: 200.0 mg/kg/injection, schedule: Q01DX001 (ip), vehicle: saline) was 0 of 6. The survivor count [5] was 0 of 6, the survivor count (dose: 200.0 mg/kg/injection, schedule: Q04DX003 (ip), vehicle: water) was 0 of 6 and the survivor count [6] was 0 of 6. The survivor count [7] was 0 of 6.

With `C[P+]1(c2ccccc2)C2C=CC=CC1C=C2` (stereo unspecified) the survivor count (dose: 40.0 mg/kg/injection, schedule: Q01DX001 (ip), vehicle: carboxymethylcellulose (CMC)) was 0 of 6, the survivor count (dose: 50.0 mg/kg/injection, schedule: Q01DX001 (ip), vehicle: carboxymethylcellulose (CMC)) was 1 of 4 and the survivor count (dose: 80.0 mg/kg/injection, schedule: Q01DX001 (ip), vehicle: carboxymethylcellulose (CMC)) was 0 of 6. For the same compound, the survivor count (dose: 100.0 mg/kg/injection, schedule: Q01DX001 (ip), vehicle: carboxymethylcellulose (CMC)) was 0 of 4, the survivor count (dose: 200.0 mg/kg/injection, schedule: Q01DX001 (ip), vehicle: carboxymethylcellulose (CMC)) was 0 of 4 and the survivor count [8] was 0 of 4.

With `COC1=CC=C2C3Cc4ccc(OC)c(O)c4C2(C1)CN3C` (stereo unspecified) the survivor count (dose: 150.0 mg/kg/injection, schedule: Q01DX009 (ip), vehicle: Klucel (hydroxypropylcellulose) (HPC)) was 1 of 6, the survivor count (dose: 200.0 mg/kg/injection, schedule: Q04DX003 (ip), vehicle: other) was 1 of 6 and the survivor count (dose: 225.0 mg/kg/injection, schedule: Q01DX009 (ip), vehicle: Klucel (hydroxypropylcellulose) (HPC)) was 3 of 6. The survivor count (dose: 335.0 mg/kg/injection, schedule: Q01DX009 (ip), vehicle: Klucel (hydroxypropylcellulose) (HPC)) was 0 of 6 and the survivor count (dose: 400.0 mg/kg/injection, schedule: Q04DX003 (ip), vehicle: other) was 0 of 6.

For `Cc1cccc(CN=C(N)CCl)n1`, the survivor count [9] was 0 of 3.

With `CC(C)(C)NC[Si](C)(C)C` the survivor count (dose: 200.0 mg/kg/injection, schedule: Q01DX009 (ip), vehicle: saline) was 0 of 6 and the survivor count [10] was 0 of 6.

With `NC(=O)N(CCCl)N=O` the T/C (dose: 0.12 mg/kg/injection, schedule: Q#A X Z (oral), vehicle: saline) was 147 % of control, the T/C (dose: 0.2 mg/kg/injection, schedule: Q01DX Z (ip), vehicle: methylcellulose (MC)) was 125 and 138 % of control and the T/C (dose: 0.4 mg/kg/injection, schedule: Q01DX Z (ip), vehicle: methylcellulose (MC)) was 136 % of control. For the same compound, the T/C (dose: 0.5 mg/kg/injection, schedule: Q01DX010 (iv), vehicle: saline) was 145 % of control, the T/C (dose: 0.5 mg/kg/injection, schedule: Q01DX Z (iv), vehicle: saline) was 136 % of control and the T/C (dose: 0.75 mg/kg/injection, schedule: Q03DX Z (oral), vehicle: saline) was 134 % of control. For the same compound, the T/C [11] was 143 % of control, the survivor count [11] was 3 of 6 and the T/C (dose: 1.0 mg/kg/injection, schedule: Q01DX Z (iv), vehicle: saline) was 131 % of control. For the same compound, the T/C (dose: 1.2 mg/kg/injection, schedule: Q01DX001 (ip), vehicle: saline) was 144 % of control, the survivor count (dose: 1.6 mg/kg/injection, schedule: Q01DX Z (oral), vehicle: methylcellulose (MC)) was 6 of 6 and the T/C (dose: 1.8 mg/kg/injection, schedule: Q01DX001 (ip), vehicle: saline) was 139 and 144 % of control. The survivor count (dose: 2.4 mg/kg/injection, schedule: Q01DX Z (oral), vehicle: methylcellulose (MC)) was 3 of 6 and 6 of 6, the T/C (dose: 3.5 mg/kg/injection, schedule: Q01DX Z (oral), vehicle: carboxymethylcellulose (CMC)) was 139 % of control and the T/C [12] was 145 % of control. The survivor count [12] was 6 of 6, the T/C (dose: 4.0 mg/kg/injection, schedule: Q01DX009 (ip), vehicle: saline) was 133 % of control and the T/C (dose: 7.0 mg/kg/injection, schedule: Q01DX Z (oral), vehicle: carboxymethylcellulose (CMC)) was 133 % of control. The T/C (dose: 7.2 mg/kg/injection, schedule: Q01DX001 (ip), vehicle: saline) was 140 % of control, the survivor count (dose: 14.0 mg/kg/injection, schedule: Q01DX001 (ip), vehicle: saline) was 10 of 10 and the survivor count (dose: 14.4 mg/kg/injection, schedule: Q01DX001 (ip), vehicle: saline) was 9 of 10 and 10 of 10. For the same compound, the survivor count (dose: 28.8 mg/kg/injection, schedule: Q01DX001 (ip), vehicle: saline) was 4 of 10 and 8 of 10 and the T/C (dose: 900.0 micrograms/kg/injection, schedule: Q01DX Z (sc), vehicle: steroid suspending solution) was 149 % of control.

For `O=C(O)CCNCCO`, the survivor count [10] was 5 of 6.

For `CCN(CCCl)CCNc1c2ccccc2nc2c1ccc1ccccc12`, the survivor count (dose: 9.0 mg/kg/injection, schedule: Q01DX009 (ip), vehicle: saline) was 3 of 6, the survivor count (dose: 18.0 mg/kg/injection, schedule: Q01DX009 (ip), vehicle: saline) was 2 of 6 and the survivor count (dose: 27.0 mg/kg/injection, schedule: Q01DX009 (ip), vehicle: saline) was 1 of 6. For the same compound, the survivor count (dose: 36.0 mg/kg/injection, schedule: Q01DX009 (ip), vehicle: saline) was 1 of 6.

In the case of `C=CCOC(=O)Nc1ccccc1`, the survivor count [1] is reported as 3 of 3.

In the case of `CCN(CC)CCC#N`, the survivor count [6] is reported as 0 of 4.

In the case of `CCN(CC)CCOC(=O)C1c2ccccc2Oc2ccccc21`, the survivor count [8] is reported as 2 of 4.

In the case of `O=C(O)CNCc1ccc(Cl)cc1`, the survivor count [5] is reported as 0 of 6 and the survivor count [7] is reported as 3 of 6.

For `Nc1nc(N)nc(CCP(CCc2nc(N)nc(N)n2)CCc2nc(N)nc(N)n2)n1`, the survivor count [3] was 2 of 6.

With `CC1CN(CC2CCCCCCCCCCC2=O)CC(C)O1` (stereo unspecified) the survivor count [9] was 0 of 3.
